Experimental findings from PubChem BioAssay AID445 (National Center for Advancing Translational Sciences (NCATS), 2006) are described below.

SMILES strings stand for the structures. The list shows a part of the results. Shown are side measurements of this screen, not its main read-out; they come without a call. Most of these compounds were active or inconclusive in the main read-out, so they are no random draw. Potencies come from curve fits of mixed quality, noted in brackets.

The assay is described as follows: IkB Signaling. The note with it: ABC-DLBCL IkBa-CBG/CBR dual luciferase ratio (green luciferase fused to IkBa over red control in OCI-Ly3 lymphoma cells), 4 h; measured here: control luc red channel unless noted. A digest of the protocol: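 Curves were fitted separately to fusion (green), unfused (red) and ratio luminescence, then classed by r2, magnitude and activity. Cells: OCI-Ly3, 4 h compound plus doxycycline at 37C; 10 uM MG-132 defined full response.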
As for `CCOc1ccc(CNCc2c(C(=O)O)n(Cc3ccc(OC)cc3)c3ccccc23)cc1`, the concentration at half-maximal activity (AC50) is 12.6 µM [falling, partial curve].
`COc1ccc(-c2nc3c(C#N)c[nH]n3c2NC2CCCC2)cc1`: the AC50 is 15.8 µM [falling, partial curve].
As to `Cc1ccc(NC(=O)Cn2c(=O)n(CCCS(=O)(=O)C3CCCCC3)c(=O)c3ccccc32)cc1F`, the AC50 was 12.6 µM [falling, partial curve].
For the compound `CC(NC(=O)c1ccc(Cn2c(=O)c3cccn3c3cccnc32)cc1)c1ccccc1` (stereo not drawn), the AC50 is 31.6 µM [falling, single point].
On to `O=C(C1COc2ccccc2O1)N1CCN(Cc2ccc3c(c2)OCO3)CC1` (stereo not drawn), for which the half-maximal activity concentration (AC50) is 15.8 µM [falling, partial curve].
In the case of `Cc1ccc(C)c(Nc2nc3c(S(=O)(=O)c4ccc(Br)cc4)nnn3c3ccsc23)c1` it was 7.94 µM [falling, full curve].
Regarding `O=C(Nc1ccc(F)c(F)c1)c1cc(S(=O)(=O)NCc2ccc3c(c2)OCO3)ccc1F`, the AC50 is 0.00631 µM [falling, full curve].
In the case of `Cc1ccc(CNC(=O)CSc2nc(=O)n(Cc3ccco3)c3c2CCC3)cc1` it was 31.6 µM [falling, single point].
In the case of `O=C(NCCOc1ccccc1)c1cc2ccccc2o1` it was 3.98 µM [falling, full curve].
As to `COc1ccc(C2=NC3(CCCCCC3)N(CC(=O)Nc3cccc(Cl)c3)C2=O)cc1`, the AC50 is 10 µM [falling, partial curve].
Take `COc1cccc(CNC(=O)CN2CCCN(Cc3ccccc3)S2(=O)=O)c1`: the AC50 was 0.02 µM [rising, full curve, poor fit].
Turning to `CC1CCN(c2ccc(-c3cccc(NS(=O)(=O)c4cccs4)c3)nn2)CC1`, the AC50 was 10 µM [falling, partial curve].
In the case of `CCCNc1nc2c(c(=O)n(C)c(=O)n2C)n1CCC(C)C` it was 20 µM [falling, partial curve]; in that of `COc1ccccc1CNc1ccc(-c2nc(-c3ccccc3C)no2)cc1[N+](=O)[O-]`, 3.16 µM [falling, full curve].
As for `Cc1cc(C)cc(NC(=O)C2CCN(C(=O)c3cnn(-c4ccccc4)c3-n3cccc3)CC2)c1`, the AC50 was 20 µM [falling, partial curve].
For `CCC(C(=O)Nc1ccccc1)n1nc(-c2cc(C)ccc2C)ccc1=O` (stereo not drawn), the concentration at half-maximal activity (AC50) is 25.1 µM [falling, single point].
For `Cc1ccc(CN2C(=O)C(=O)c3cc(Br)cc(C)c32)cc1`, the AC50 is 31.6 µM [falling, single point].
On to `O=C(CN1CCN(Cc2ccc3c(c2)OCO3)CC1)N1CCc2[nH]c3ccc(F)cc3c2C1`, for which the AC50 was 10 µM [falling, partial curve].
In the case of `Cc1ccccc1Nc1c(-c2cccnc2)nc2cccc(C)n12` it was 20 µM [falling, partial curve]; in that of `CCOc1ccc(-n2c(=O)c3c(C)c(C)sc3n(CC(=O)Nc3ccc(CC)cc3)c2=O)cc1`, 7.94 µM [falling, partial curve].
For the compound `CCN(C(=O)c1cc2c(=O)n(CC)c3ccccc3c2s1)c1cccc(C(F)(F)F)c1`, the AC50 is 20 µM [falling, partial curve].
Consider `COc1ccc(Br)cc1CNC(=O)c1cnc2sc(N3CCCCCC3)nn2c1=O`, for which the AC50 is 31.6 µM [falling, single point].
Turning to `COc1cccc(NC(=O)Cn2c(=O)ccc3cc(S(=O)(=O)N4CCC(C)CC4)ccc32)c1`, the AC50 was 0.0316 µM [falling, full curve, poor fit].
Consider `COc1ccc(-c2cc(-c3c(O)c(OC)c4occc4c3OC)[nH]n2)cc1OC`, for which the AC50 was 25.1 µM [falling, single point].
With `COc1ccc(Cl)cc1S(=O)(=O)N1CCN(CC(=O)Nc2ccccc2C(F)(F)F)CC1`, the AC50 is 39.8 µM [falling, partial curve].
For the compound `CCSc1nc2c([nH]c3ccccc32)c(=O)n1-c1cccc(OC)c1`, the AC50 is 39.8 µM [falling, single point].
In the case of `c1ccc(-c2noc(-c3ccco3)n2)nc1` it was 12.6 µM [falling, partial curve].
Regarding `COc1cc(C(=O)Nc2cccc(OCc3cc(=O)n4cc(C)sc4n3)c2)cc(OC)c1OC`, the AC50 is 2 µM [falling, full curve].
Consider `CC(=O)Nc1nonc1-c1nnc(SCC(=O)Nc2cccc(C)c2C)n1-c1ccccc1`, for which the AC50 is 15.8 µM [falling, partial curve].
With `COc1ccc(-c2nc(CCNC(=O)c3c(F)cccc3Cl)cs2)cc1`, the AC50 was 39.8 µM [falling, single point].
With `CC1CCN(C(=O)Cn2cc(SCC(=O)Nc3ccccc3C(F)(F)F)c3ccccc32)CC1`, the AC50 is 25.1 µM [falling, single point].
With `Cc1ccc(-n2ncc(C(=O)N3CCN(c4ncccn4)CC3)c2C2CCN(C(=O)OC(C)(C)C)CC2)cc1`, the concentration at half-maximal activity (AC50) was 20 µM [falling, partial curve].
`COc1ccc(S(=O)(=O)NCCSCc2cccs2)cc1`: the AC50 was 20 µM [falling, partial curve].
Turning to `C=CCn1c(SCC(=O)NC2CCCC2)nc2scc(-c3ccco3)c2c1=O`, the AC50 is 39.8 µM [rising, single point] [measured here: IkB-luc green channel].
Take `Cc1nc(-c2ccc(S(=O)(=O)N(C)Cc3ccccc3)cc2)co1`: the AC50 was 20 µM [falling, partial curve].
As to `CCn1c2ccccc2c2nnc(N3CCN(c4ccc(OC)cc4)CC3)nc21`, the half-maximal activity concentration (AC50) is 6.31 µM [falling, partial curve].
With `Cc1nc2sccn2c1-c1csc(NCc2ccccc2)n1`, the AC50 was 20 µM [falling, partial curve].
In the case of `CCn1c(COc2ccc(Cl)cc2)nnc1SCc1ccc(C#N)cc1` it was 6.31 µM [falling, partial curve]; in that of `CCCCCc1ccc(-c2ccc(C(=O)Oc3ccc(C(=O)OC)cc3)cc2)nc1`, 0.126 µM [falling, full curve].
As to `COc1ccccc1Nc1c2c(nc3ccc(NC(=O)/C=C/c4cc(OC)c(OC)c(OC)c4)cc13)CCCC2`, the AC50 was 25.1 µM [falling, partial curve].
For `O=C(Cc1cn2ccsc2n1)OCc1ccccc1`, the AC50 was 10 µM [falling, partial curve].
For `COc1ccccc1CNC(=O)c1ccc(CSc2nc3ccncc3n2Cc2ccccc2C)cc1`, the AC50 is 10 µM [falling, partial curve].
Consider `O=C(c1ccc(Nc2nc3ccccc3n3nnnc23)cc1)N1CCN(c2ccc(F)cc2)CC1`, for which the AC50 is 6.31 µM [falling, full curve].
Regarding `COc1cc(NC(=O)c2cc3nc(-c4ccc(C)cc4)cc(C(F)(F)F)n3n2)cc(OC)c1OC`, the AC50 is 10 µM [falling, partial curve].
Consider `O=S(=O)(Nc1ccc(F)cc1F)c1ccc(Br)s1`, for which the AC50 is 25.1 µM [falling, single point].
As for `COc1ccc(CCNC(=O)c2cnc3sc(N4CCOCC4)nn3c2=O)cc1OC`, the AC50 was 25.1 µM [rising, single point].
`O=C(Nc1cc(-c2nc3cc(Cl)ccc3o2)ccc1Cl)c1cccc2ccccc12`: the AC50 was 2 µM [falling, full curve].
In the case of `COc1ccc(CCNC(=O)c2c[nH]n3c(=O)c(Cc4ccccc4Cl)c(C)nc23)cc1OC` it was 31.6 µM [falling, partial curve]; in that of `CCn1c2c(c(=O)n3ncc(C(=O)Nc4ccc(OC(F)(F)F)cc4)c13)CN(Cc1ccc(OC)cc1)CC2`, 3.16 µM [falling, partial curve]; in that of `COc1cccc(C(=O)Nc2ccc3nc(N4CCN(c5ncccn5)CC4)cc(C)c3c2)c1OC`, 1.26 µM [falling, full curve].
As for `Fc1ccc([C@@H]2Nc3ccccc3[C@@H]3C=CC[C@@H]32)cc1`, the AC50 was 15.8 µM [falling, partial curve].
Consider `COc1ccc(/C=C/c2nc(C#N)c(N3CCCCCC3)o2)cc1OC`, for which the half-maximal activity concentration (AC50) was 39.8 µM [falling, single point].
As for `O=C(Cn1cc(S(=O)(=O)c2ccc(Cl)cc2)c(=O)c2ccccc21)Nc1ccc2c(c1)OCO2`, the AC50 was 2 µM [falling, partial curve].
`COc1ccc(CNS(=O)(=O)c2ccc3c(c2)NC(=O)C(C)C(=O)N3)cc1` (stereo not drawn): the concentration at half-maximal activity (AC50) is 15.8 µM [falling, single point].
For the compound `Cc1ccc(C)c(S(=O)(=O)Nc2ccc3c(c2)CCCN3C(=O)c2cccs2)c1`, the AC50 was 31.6 µM [falling, partial curve].
In the case of `Cc1ccc(C)c(Nc2ncnc3c2cnn3-c2ccc(F)cc2)c1`, the AC50 is 20 µM [falling, single point].
On to `COc1ccc(C)cc1NS(=O)(=O)c1ccc(-c2cnc(C3CC3)o2)cc1`, for which the AC50 was 0.794 µM [rising, full curve].
As to `CCc1ccc(Nc2ncnc3sc4c(c23)CCCC4)cc1`, the AC50 is 6.31 µM [rising, single point].
As for `CCCN(C(=O)c1cc2c(=O)n(CC)c3ccccc3c2s1)c1ccccc1F`, the AC50 was 10 µM [falling, partial curve].
Take `CCCCNC(=O)c1cc(-c2ccc(F)cc2)on1`: the AC50 was 2 µM [falling, partial curve].
Take `O=C(c1cccc([N+](=O)[O-])c1)N1c2nc(-c3ccco3)nn2C2(CCCCC2)[C@@H]2CCCC[C@@H]21`: the AC50 is 5.01 µM [falling, full curve].
Take `CCCC(=O)c1cc2c(cc1NC(=O)c1ccccc1F)OCCO2`: the AC50 is 3.16 µM [rising, single point].
Take `COc1cccc(CNC(=O)C2CCCN(S(=O)(=O)c3ccc4c(ccn4C)c3)C2)c1OC` (stereo not drawn): the AC50 was 10 µM [falling, partial curve].

In general, AC50 refers to the concentration at which the activity in the assay is half-maximal.
